This is an account of results in the supplement of paper PMC12595434, “Development of retinoid nuclear receptor pathway antagonists through targeting aldehyde dehydrogenase 1A3” (iScience, 2025).

The chains behind the UniProt entries cited, without tags or fusion partners. Where a name states a change or a piece, a line headed by the entry shows the natural chain unless it says otherwise.
UniProt P22670: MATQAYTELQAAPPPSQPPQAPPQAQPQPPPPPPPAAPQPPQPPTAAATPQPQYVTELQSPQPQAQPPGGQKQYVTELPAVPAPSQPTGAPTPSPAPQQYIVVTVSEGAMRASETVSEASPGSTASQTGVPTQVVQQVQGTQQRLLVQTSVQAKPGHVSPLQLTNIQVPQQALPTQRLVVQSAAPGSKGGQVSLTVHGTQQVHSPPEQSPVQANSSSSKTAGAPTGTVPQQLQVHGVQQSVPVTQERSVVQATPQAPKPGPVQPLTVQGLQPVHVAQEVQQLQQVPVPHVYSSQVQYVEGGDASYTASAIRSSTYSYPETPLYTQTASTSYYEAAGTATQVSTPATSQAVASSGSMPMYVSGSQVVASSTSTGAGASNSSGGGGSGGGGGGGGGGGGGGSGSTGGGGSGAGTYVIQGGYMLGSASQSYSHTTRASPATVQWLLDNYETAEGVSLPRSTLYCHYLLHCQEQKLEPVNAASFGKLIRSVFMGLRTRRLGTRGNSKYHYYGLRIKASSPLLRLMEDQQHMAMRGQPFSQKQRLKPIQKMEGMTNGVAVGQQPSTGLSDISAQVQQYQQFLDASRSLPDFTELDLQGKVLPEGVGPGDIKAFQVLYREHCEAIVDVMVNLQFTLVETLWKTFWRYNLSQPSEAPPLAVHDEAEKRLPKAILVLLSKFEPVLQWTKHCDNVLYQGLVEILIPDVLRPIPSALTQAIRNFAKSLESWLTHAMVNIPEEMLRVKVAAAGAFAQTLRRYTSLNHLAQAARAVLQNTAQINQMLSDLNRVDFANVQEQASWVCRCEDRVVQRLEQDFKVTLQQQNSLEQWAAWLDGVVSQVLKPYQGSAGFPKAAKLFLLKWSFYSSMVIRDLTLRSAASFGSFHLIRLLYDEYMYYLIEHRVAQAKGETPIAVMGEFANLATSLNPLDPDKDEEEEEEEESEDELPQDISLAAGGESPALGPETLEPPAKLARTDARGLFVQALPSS
UniProt P30154, whole entry: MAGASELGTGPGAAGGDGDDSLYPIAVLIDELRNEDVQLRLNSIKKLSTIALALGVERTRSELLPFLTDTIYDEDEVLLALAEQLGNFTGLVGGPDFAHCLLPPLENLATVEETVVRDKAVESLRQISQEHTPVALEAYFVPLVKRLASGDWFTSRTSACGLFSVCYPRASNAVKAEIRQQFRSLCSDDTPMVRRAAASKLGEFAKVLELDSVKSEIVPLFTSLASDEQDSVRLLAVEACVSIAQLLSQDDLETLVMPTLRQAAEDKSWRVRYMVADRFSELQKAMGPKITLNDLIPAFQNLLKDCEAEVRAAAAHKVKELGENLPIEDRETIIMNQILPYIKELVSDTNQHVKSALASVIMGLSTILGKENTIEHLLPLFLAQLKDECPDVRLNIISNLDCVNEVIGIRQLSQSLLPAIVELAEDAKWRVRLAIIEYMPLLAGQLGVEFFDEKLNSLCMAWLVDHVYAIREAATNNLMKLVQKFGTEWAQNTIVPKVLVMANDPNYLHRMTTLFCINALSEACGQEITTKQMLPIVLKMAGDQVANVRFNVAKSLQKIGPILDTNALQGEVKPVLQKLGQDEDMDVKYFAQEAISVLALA
UniProt P30086: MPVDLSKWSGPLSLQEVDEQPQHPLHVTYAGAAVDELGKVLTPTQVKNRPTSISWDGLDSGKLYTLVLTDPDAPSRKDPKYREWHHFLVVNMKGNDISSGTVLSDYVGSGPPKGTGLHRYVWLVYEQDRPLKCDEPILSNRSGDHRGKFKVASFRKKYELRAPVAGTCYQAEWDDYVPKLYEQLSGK
UniProt P26599: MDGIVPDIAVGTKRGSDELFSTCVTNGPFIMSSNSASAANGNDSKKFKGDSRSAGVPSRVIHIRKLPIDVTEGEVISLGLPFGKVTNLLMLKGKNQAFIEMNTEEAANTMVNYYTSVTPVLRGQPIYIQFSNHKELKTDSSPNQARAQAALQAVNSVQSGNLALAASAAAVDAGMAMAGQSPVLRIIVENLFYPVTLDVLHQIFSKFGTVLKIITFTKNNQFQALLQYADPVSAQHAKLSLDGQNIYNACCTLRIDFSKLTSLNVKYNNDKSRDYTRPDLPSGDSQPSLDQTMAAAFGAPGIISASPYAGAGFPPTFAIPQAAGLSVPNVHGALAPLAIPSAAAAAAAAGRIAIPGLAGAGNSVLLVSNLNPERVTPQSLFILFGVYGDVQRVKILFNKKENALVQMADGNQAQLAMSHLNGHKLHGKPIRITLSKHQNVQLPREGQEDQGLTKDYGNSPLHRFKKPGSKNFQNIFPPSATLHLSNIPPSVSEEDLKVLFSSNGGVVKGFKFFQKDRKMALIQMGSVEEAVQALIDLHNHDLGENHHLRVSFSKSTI
UniProt P30520: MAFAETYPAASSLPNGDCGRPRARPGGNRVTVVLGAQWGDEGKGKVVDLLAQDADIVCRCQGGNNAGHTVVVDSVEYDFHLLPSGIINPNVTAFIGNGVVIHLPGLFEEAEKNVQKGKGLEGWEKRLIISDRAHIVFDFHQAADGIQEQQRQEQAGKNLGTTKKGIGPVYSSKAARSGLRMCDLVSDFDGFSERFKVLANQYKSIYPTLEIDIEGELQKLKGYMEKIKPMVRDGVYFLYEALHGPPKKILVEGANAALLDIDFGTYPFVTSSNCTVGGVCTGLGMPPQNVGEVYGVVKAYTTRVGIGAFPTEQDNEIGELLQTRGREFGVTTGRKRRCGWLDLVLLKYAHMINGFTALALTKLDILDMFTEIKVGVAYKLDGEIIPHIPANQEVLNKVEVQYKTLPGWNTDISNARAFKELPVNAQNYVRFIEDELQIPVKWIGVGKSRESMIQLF
UniProt P36969, whole entry: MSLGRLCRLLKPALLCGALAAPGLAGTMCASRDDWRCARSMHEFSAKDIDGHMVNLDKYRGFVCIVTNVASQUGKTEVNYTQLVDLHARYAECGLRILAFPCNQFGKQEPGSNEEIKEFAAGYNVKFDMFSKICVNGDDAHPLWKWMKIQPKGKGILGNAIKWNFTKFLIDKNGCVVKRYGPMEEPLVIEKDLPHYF
UniProt P36404: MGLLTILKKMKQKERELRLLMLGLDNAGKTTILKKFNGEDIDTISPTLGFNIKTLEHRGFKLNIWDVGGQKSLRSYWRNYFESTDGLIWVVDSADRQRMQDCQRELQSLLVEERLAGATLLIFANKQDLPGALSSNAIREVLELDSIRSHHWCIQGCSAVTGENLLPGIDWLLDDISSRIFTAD
UniProt P34896: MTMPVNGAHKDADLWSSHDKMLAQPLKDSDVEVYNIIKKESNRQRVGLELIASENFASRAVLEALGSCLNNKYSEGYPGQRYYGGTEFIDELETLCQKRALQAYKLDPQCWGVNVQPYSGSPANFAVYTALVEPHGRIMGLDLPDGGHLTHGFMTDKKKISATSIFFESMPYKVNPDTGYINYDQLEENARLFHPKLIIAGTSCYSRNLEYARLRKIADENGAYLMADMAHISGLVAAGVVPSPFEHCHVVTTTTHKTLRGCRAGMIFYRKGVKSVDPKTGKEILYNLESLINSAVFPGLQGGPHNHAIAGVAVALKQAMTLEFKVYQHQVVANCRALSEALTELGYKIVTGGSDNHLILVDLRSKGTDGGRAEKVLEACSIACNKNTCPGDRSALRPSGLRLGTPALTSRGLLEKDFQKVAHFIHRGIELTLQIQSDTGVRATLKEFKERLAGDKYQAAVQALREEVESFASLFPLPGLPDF
UniProt P35869: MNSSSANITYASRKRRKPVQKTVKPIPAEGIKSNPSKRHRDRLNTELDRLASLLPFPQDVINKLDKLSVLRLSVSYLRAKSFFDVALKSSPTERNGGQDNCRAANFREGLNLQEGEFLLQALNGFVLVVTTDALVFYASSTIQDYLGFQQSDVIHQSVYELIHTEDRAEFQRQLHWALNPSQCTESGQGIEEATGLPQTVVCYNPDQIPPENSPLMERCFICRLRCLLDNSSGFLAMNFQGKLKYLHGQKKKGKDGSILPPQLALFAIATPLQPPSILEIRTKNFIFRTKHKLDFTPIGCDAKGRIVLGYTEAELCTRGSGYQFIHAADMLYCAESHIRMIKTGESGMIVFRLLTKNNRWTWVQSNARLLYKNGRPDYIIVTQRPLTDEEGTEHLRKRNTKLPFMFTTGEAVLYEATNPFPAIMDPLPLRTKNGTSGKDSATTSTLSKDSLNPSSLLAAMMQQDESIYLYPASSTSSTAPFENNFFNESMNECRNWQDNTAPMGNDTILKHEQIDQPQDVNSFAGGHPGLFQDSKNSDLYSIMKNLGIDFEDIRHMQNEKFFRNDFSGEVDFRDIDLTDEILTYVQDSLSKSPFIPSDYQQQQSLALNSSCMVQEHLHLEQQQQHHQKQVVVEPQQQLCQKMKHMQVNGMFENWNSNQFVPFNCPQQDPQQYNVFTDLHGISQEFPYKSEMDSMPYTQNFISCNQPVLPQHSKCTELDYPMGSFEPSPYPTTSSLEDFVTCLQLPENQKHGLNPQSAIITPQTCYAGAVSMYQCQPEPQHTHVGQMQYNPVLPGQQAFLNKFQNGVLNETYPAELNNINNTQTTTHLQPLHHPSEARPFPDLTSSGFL
UniProt P21397, whole entry: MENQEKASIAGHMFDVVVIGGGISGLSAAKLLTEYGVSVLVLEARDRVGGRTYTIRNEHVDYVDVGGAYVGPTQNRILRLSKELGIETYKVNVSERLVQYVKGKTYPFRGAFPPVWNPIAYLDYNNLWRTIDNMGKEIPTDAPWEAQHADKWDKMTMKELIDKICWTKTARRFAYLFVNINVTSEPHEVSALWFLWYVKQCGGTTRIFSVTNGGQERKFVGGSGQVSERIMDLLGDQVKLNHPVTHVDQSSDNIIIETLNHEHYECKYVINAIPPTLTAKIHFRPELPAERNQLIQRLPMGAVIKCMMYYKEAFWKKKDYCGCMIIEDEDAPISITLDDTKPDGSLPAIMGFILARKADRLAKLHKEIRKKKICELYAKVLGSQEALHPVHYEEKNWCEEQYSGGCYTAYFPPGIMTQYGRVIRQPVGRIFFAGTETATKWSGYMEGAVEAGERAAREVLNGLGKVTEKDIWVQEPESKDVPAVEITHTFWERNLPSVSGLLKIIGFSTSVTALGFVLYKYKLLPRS
UniProt P30533, whole entry: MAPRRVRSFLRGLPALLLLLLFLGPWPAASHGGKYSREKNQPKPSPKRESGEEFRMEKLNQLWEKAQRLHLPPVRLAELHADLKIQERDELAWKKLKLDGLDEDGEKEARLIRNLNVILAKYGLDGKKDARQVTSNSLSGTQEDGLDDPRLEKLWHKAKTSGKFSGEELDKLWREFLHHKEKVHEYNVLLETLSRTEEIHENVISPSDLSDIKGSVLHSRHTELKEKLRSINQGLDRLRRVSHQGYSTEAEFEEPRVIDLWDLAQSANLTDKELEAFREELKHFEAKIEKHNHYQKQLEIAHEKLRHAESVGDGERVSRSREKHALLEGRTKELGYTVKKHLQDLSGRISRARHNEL
UniProt P35052: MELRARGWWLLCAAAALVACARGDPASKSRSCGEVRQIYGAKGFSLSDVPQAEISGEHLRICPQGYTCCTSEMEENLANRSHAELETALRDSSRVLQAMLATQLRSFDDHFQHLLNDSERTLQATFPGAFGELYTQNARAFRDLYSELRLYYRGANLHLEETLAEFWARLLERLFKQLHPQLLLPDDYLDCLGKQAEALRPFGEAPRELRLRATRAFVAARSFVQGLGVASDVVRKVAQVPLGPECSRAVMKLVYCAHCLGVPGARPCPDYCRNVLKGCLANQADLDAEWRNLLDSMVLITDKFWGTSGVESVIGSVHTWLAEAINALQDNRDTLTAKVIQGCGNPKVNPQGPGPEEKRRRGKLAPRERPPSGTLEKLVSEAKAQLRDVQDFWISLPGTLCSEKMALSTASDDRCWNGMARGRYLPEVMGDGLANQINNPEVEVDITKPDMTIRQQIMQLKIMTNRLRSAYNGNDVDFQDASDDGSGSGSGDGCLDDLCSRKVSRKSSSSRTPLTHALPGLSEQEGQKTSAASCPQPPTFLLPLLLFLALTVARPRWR
UniProt P35908: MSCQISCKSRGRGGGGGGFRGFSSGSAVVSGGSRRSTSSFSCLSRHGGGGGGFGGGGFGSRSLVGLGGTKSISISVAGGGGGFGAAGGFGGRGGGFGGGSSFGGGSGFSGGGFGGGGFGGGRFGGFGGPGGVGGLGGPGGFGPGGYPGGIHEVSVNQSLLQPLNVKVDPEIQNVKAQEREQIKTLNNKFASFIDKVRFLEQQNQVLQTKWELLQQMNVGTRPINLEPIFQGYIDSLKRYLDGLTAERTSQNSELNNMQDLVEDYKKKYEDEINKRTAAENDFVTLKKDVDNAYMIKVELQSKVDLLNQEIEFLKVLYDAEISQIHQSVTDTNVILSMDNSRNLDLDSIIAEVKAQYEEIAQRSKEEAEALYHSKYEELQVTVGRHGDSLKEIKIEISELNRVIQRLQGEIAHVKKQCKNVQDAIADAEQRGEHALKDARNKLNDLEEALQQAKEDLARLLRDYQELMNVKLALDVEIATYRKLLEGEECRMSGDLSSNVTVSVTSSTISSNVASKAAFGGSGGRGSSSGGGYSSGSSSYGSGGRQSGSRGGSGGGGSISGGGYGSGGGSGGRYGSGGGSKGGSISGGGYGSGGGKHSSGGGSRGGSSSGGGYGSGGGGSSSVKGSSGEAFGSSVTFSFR

The list shows a part of the results. This is a noisy data set.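 Tm was set to 64 °C where no melting was found, and many curves are irregular.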

Compound in this assay: CCc1cnccc1C(=O)Nc1cc2c(cc1F)NC(=O)CC2
In words: melting temperature shift (DMSO Tm minus MBE1-treated Tm) in cellular thermal proteome profiling; higher = less thermal stabilization by MBE1 (negative = stabilized by MBE1). The following applies: A375.

MCM7 (UniProt P33993): the melting temperature shift reads like this: (MBE1 concentration: 100 nM) 0.837 °C; (MBE1 concentration: 1 uM) 0.0183 °C.
Turning to WARS (UniProt P23381), the melting temperature shift is, setting by setting: (MBE1 concentration: 100 nM) -1.76 °C; (MBE1 concentration: 1 uM) -0.354 °C.
The corresponding values for RFX1 (UniProt P22670) are -0.181 °C and -0.127 °C.
As for UniProt P24844, the melting temperature shift is, setting by setting: (MBE1 concentration: 100 nM) -1.04 °C; (MBE1 concentration: 1 uM) 0.322 °C.
The corresponding values for RPS12 (UniProt P25398) are -0.721 °C and 0.0366 °C.
The matching figures for PPIB (UniProt P23284): -0.996 °C and -2.34 °C.
With PPP2R1B (UniProt P30154), the melting temperature shift by setting is: (MBE1 concentration: 100 nM) -1.04 °C; (MBE1 concentration: 1 uM) -0.403 °C.
The corresponding values for UniProt P28161 are 0.256 °C and 0.69 °C.
As for ABCC1 (UniProt P33527), the melting temperature shift is -0.637 °C (MBE1 concentration: 100 nM) and 0.134 °C (MBE1 concentration: 1 uM).
The corresponding values for CPOX (UniProt P36551) are -1.7 °C and 0.214 °C.
As to GTF2F1 (UniProt P35269), the melting temperature shift was -0.952 °C (MBE1 concentration: 100 nM) and -0.11 °C (MBE1 concentration: 1 uM).
The corresponding values for GRK5 (UniProt P34947) are 1.76 °C and 0.623 °C.
As for PEBP1 (UniProt P30086), the melting temperature shift (MBE1 concentration: 100 nM) is -1.61 °C and the melting temperature shift (MBE1 concentration: 1 uM) came out at 0.354 °C.
The matching figures for TNFAIP3 (UniProt P21580): -0.376 °C and 0.295 °C.
The matching figures for PTBP1 (UniProt P26599): 0 °C and -0.0733 °C.
The corresponding values for PGM1 (UniProt P36871) are -1.25 °C and -1.15 °C.
In the case of ACAT1 (UniProt P24752), the melting temperature shift was -1.2 °C (MBE1 concentration: 100 nM) and 0.226 °C (MBE1 concentration: 1 uM).
The matching figures for UniProt P35749: -0.208 °C and 0.287 °C.
The corresponding values for CPS1 (UniProt P31327) are 0.0671 °C and 1.26 °C.
The corresponding values for L1CAM (UniProt P32004) are 0.969 °C and -1.43 °C.
For the target PPP2R1A (UniProt P30153), the melting temperature shift reads like this: (MBE1 concentration: 100 nM) -0.402 °C; (MBE1 concentration: 1 uM) 0.443 °C.
The corresponding values for HNRNPH3 (UniProt P31942) are -0.0192 °C and -0.128 °C.
The matching figures for ADSS (UniProt P30520): -0.933 °C and -0.55 °C.
In the case of GPX4 (UniProt P36969), the melting temperature shift is -1.15 °C (MBE1 concentration: 100 nM) and -0.159 °C (MBE1 concentration: 1 uM).
The corresponding values for PSMC2 (UniProt P35998) are -1.08 °C and 0.543 °C.
The corresponding values for CD70 (UniProt P32970) are -3.44 °C and -2.84 °C.
The matching figures for ARL2 (UniProt P36404): -0.59 °C and 0.456 °C.
For the target COPB2 (UniProt P35606), the melting temperature shift is -0.4 °C (MBE1 concentration: 100 nM) and 0.0611 °C (MBE1 concentration: 1 uM).
The corresponding values for AKT1 (UniProt P31749) are 0.727 °C and -0.0122 °C.
The matching figures for DNAJA1 (UniProt P31689): -1.75 °C and -1.36 °C.
Take LMNB1 (UniProt P20700): the melting temperature shift by setting is: (MBE1 concentration: 100 nM) 0.574 °C; (MBE1 concentration: 1 uM) 0.0183 °C.
The matching figures for SHMT1 (UniProt P34896): -1.55 °C and -1.74 °C.
Take S100A4 (UniProt P26447): the melting temperature shift is -1.4 °C (MBE1 concentration: 100 nM) and -1.63 °C (MBE1 concentration: 1 uM).
The matching figures for HNRNPA2B1 (UniProt P22626): 0.165 °C and -0.458 °C.
The corresponding values for APEX1 (UniProt P27695) are 0.837 °C and 0.421 °C.
The matching figures for ME2 (UniProt P23368): 0.421 °C and -0.183 °C.
As to RFC4 (UniProt P35249), the melting temperature shift amounted to 0.0305 °C (MBE1 concentration: 100 nM) and 0.311 °C (MBE1 concentration: 1 uM).
As to RPL4 (UniProt P36578), the melting temperature shift reads like this: (MBE1 concentration: 100 nM) -0.513 °C; (MBE1 concentration: 1 uM) 0.775 °C.
The corresponding values for CDK2 (UniProt P24941) are -0.315 °C and 0.682 °C.
The matching figures for UniProt P35869: 0 °C and -1.37 °C.
The matching figures for DCK (UniProt P27707): -0.537 °C and 0.33 °C.
In the case of TKT (UniProt P29401), the melting temperature shift runs as follows: (MBE1 concentration: 100 nM) -3.82 °C; (MBE1 concentration: 1 uM) -0.867 °C.
The corresponding values for NUP214 (UniProt P35658) are -0.899 °C and -0.899 °C.
The corresponding values for GNL1 (UniProt P36915) are 0.58 °C and 0.104 °C.
The corresponding values for MSN (UniProt P26038) are -0.329 °C and -0.0613 °C.
As for AGL (UniProt P35573), the melting temperature shift worked out at 0.598 °C (MBE1 concentration: 100 nM) and 0.427 °C (MBE1 concentration: 1 uM).
The matching figures for PRDX6 (UniProt P30041): -0.0335 °C and 0.0939 °C.
The corresponding values for UniProt P21397 are -0.611 °C and -0.122 °C.
For RFC1 (UniProt P35251), the melting temperature shift is -0.634 °C (MBE1 concentration: 100 nM) and -0.474 °C (MBE1 concentration: 1 uM).
The matching figures for CPT2 (UniProt P23786): 0.117 °C and 0.437 °C.
As to AK4 (UniProt P27144), the melting temperature shift is, setting by setting: (MBE1 concentration: 100 nM) -0.731 °C; (MBE1 concentration: 1 uM) -0.0335 °C.
The corresponding values for GNA11 (UniProt P29992) are -0.455 °C and 0.00611 °C.
The corresponding values for RFC2 (UniProt P35250) are 0.867 °C and 0.269 °C.
The corresponding values for LRPAP1 (UniProt P30533) are -1.82 °C and -3.48 °C.
For PPM1A (UniProt P35813), the melting temperature shift (MBE1 concentration: 100 nM) is -0.0977 °C and the melting temperature shift (MBE1 concentration: 1 uM) was found to be 0.537 °C.
Consider UniProt P21579, for which the melting temperature shift is -1.68 °C (MBE1 concentration: 100 nM) and 0.922 °C (MBE1 concentration: 1 uM).
The matching figures for UniProt P35052: -6.63 °C and -2.49 °C.
The matching figures for TIA1 (UniProt P31483): -0.543 °C and -0.423 °C.
As to UniProt P35908, the melting temperature shift is, setting by setting: (MBE1 concentration: 100 nM) -0.127 °C; (MBE1 concentration: 1 uM) 0.66 °C.
As to DEK (UniProt P35659), the melting temperature shift is -0.687 °C (MBE1 concentration: 100 nM) and -0.301 °C (MBE1 concentration: 1 uM).
